Experimental data: PubChem BioAssay AID2685 (National Center for Advancing Translational Sciences (NCATS), 2010)
The other results are listed elsewhere or left out. Further columns of the screen follow, without active or inactive calls. Most of these compounds were active or inconclusive in the main read-out, so they are no random draw. Words in brackets tell the shape of the fitted curve; partial curves, single points and poor fits give uncertain potencies.

Assay: qHTS Assay for Lipid Storage Modulators in Drosophila S3 Cells;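 on cell number change: cells counted by Cell Tracker Red CMTPX staining in the red channel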
Settings: BODIPY lipid droplet fluorescence, 18-24 h; for cell number change: measured here: cell count max response, cells fed with added oleic acid
How it was run: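 Laser-scanning cytometry quantifies lipid droplet accumulation (500–530 nm total intensity; droplet/cell object ratio) in oleic acid-fed (400 uM added) Drosophila S3 cells treated with a concentration series. 20 uM Triacsin C defined 100% inhibition.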

[1] = measured here: lipid fluorescence (Fed channel) AC50, cells fed with added oleic acid
[2] = measured here: cell number channel AC50, cells fed with added oleic acid

CCCC(C(=O)Nc1ccc(S(=O)(=O)N2CCOCC2)cc1)c1ccccc1 (centres undefined)
cell number change: -4.57%
AC50 [1]: 0.731 µM [falling, single point]

O=C(Nc1ccc(Br)cc1)c1ccc(F)c(S(=O)(=O)N2CCN(c3ccccn3)CC2)c1
cell number change: -6.32%
AC50 [2]: 0.103 µM [falling, full curve, poor fit]
AC50 [1]: 0.206 µM [falling, full curve, poor fit]

CCN1c2ccccc2-c2nc3ccccc3n2C1c1ccco1 (centres undefined)
cell number change: 73.9%

COc1ccc(C(=O)OCc2cc(=O)n3c(C)csc3n2)cc1F
cell number change: 12.6%
AC50 [1]: 32.6 µM [rising, single point]

CC(C)CCn1c(SCC(=O)OCn2nnc3ccccc3c2=O)nc2ccccc2c1=O
AC50 [2]: 2.59 µM [rising, single point]

Cc1ccc(CC(=O)N2CCN(C(=O)C3CCCO3)CC2)cc1 (centres undefined)
AC50 [2]: 6.51 µM [rising, single point]

Cc1ccc(C)c(NC(=S)NC(NC(=O)Cc2ccccc2)C(Cl)(Cl)Cl)c1 (centres undefined)
cell number change: -32.1%
AC50 [2]: 16.4 µM [falling, single point]
AC50 [1]: 2.91 µM [rising, single point]

Cc1cccc(Oc2ccccc2NC(=O)C2=COCCO2)c1
cell number change: -9.17%
AC50 [1]: 0.731 µM [falling, single point]

COc1ccc(-c2nc(CSCC(=O)N3CCN(c4cccc(C)c4)C(C)C3)c(C)o2)cc1OC (centres undefined)
cell number change: -9.97%
AC50 [1]: 29.1 µM [falling, single point]

O=C(Nc1c2c(nn1-c1ccccc1)CSC2)c1ccc(N2C(=O)CCC2=O)cc1
cell number change: -18.8%
AC50 [2]: 0.517 µM [falling, full curve, poor fit]

COc1cc2c(cc1NC(=O)COc1ccccc1OC)oc1ccccc12
cell number change: 93.7%
AC50 [2]: 2.06 µM [rising, full curve]

Cc1cccc(OCCC(=O)OCc2csc(CC(=O)Nc3ccccc3C)n2)c1
cell number change: 44.6%
AC50 [2]: 29.1 µM [rising, single point]
AC50 [1]: 3.66 µM [rising, partial curve]

CCOC(=O)c1oc2cc(OCC(N)=O)ccc2c(=O)c1-c1ccc(OC)c(OC)c1
cell number change: 10.3%
AC50 [2]: 2.91 µM [falling, single point]
AC50 [1]: 0.291 µM [falling, full curve]

COC(=O)Nc1nnc(Cc2ccccc2)s1
cell number change: 10.1%
AC50 [2]: 0.206 µM [falling, full curve, poor fit]
AC50 [1]: 5.8 µM [falling, partial curve, poor fit]

CC1(C)CC(NC(=O)COc2ccc([N+](=O)[O-])cc2)CC(C)(C)N1
cell number change: -17.2%
AC50 [1]: 4.61 µM [falling, full curve, poor fit]

C#CCOCCOCCOCCNc1nc(N2CCN(C(=O)[C@H](CCC(=O)O)n3cc(C(N)CC(C)C)nn3)CC2)nc(N2CCN(C(=O)[C@H](Cc3ccc(O)cc3)n3cc(C(N)[C@H](C)CC)nn3)CC2)n1 (some centres undefined)
cell number change: -9.91%
AC50 [1]: 0.0058 µM [falling, full curve, poor fit]

CCCCn1c(N)c(N(CC(C)C)C(=O)CSC(C)C(=O)Nc2cc(C)on2)c(=O)[nH]c1=O (centres undefined)
cell number change: -75%
AC50 [2]: 1.64 µM [falling, full curve]
AC50 [1]: 29.1 µM [rising, single point]

CNC(=O)/C(C#N)=C/c1cc(C)n(-c2ccc(N3CCOCC3)cc2)c1C
cell number change: -38.2%
AC50 [2]: 20.6 µM [falling, single point]
AC50 [1]: 25.9 µM [falling, single point]

COc1ccc(C2C(C(=O)Nc3cc(OC)c(OC)c(OC)c3)c3ccccc3C(=O)N2C)cc1 (centres undefined)
cell number change: 34.8%

CC(C)(O)[C@@H]1Cc2c(ccc3ccc(=O)oc23)O1
cell number change: -25.4%
AC50 [2]: 0.13 µM [falling, full curve]
AC50 [1]: 2.59 µM [falling, full curve]

CCOC(=O)N1CCN(C(=O)Cn2nc(C)n3nc(-c4ccccc4)cc3c2=O)CC1
cell number change: 22.1%

O=C(OCN1C(=O)c2ccccc2C1=O)c1cc(S(=O)(=O)N2CCOCC2)ccc1F
cell number change: -17.2%

CN(CC(=O)NCc1ccncc1)S(=O)(=O)c1ccc(F)cc1
cell number change: 17.9%
AC50 [1]: 5.8 µM [falling, partial curve]

CC(=O)Nc1ccc(S(=O)(=O)NCC(CCC(=O)O)C(F)(F)F)cc1 (centres undefined)
cell number change: -56.5%
AC50 [2]: 20.6 µM [falling, single point]

Cc1cccc(NC(=O)c2ccc(CN3CCN(Cc4ccccc4)CC3)cc2)c1
cell number change: 0.0397%
AC50 [1]: 7.31 µM [rising, single point]

O=C(c1ccc2ccccc2n1)N1CCN(c2ccccc2Cl)CC1
AC50 [2]: 6.51 µM [rising, single point]

CCCOc1cc(C)c(S(=O)(=O)n2ccc(C)n2)cc1C
cell number change: 58.2%
AC50 [2]: 9.2 µM [rising, partial curve]
AC50 [1]: 16.4 µM [rising, partial curve]

O=C(COC(=O)c1ccc(O)cc1)Nc1cc(C(F)(F)F)ccc1Cl
cell number change: 4.27%

C/C(=N\NC(=O)C(N)=O)c1ccc2c(c1)OCCO2
cell number change: -13.1%
AC50 [1]: 14.1 µM [falling, single point]

Cn1nccc1CNC(=O)c1ccnn1C
cell number change: -23.5%
AC50 [2]: 4.61 µM [rising, single point]
AC50 [1]: 6.51 µM [rising, single point]

Cc1ccc(NC(=O)c2cccc(S(=O)(=O)NCc3ccccc3)c2)nc1
cell number change: 79.1%
AC50 [2]: 20.6 µM [rising, partial curve]

CSc1nnc(-c2ccncc2)n1CCCN1CCCC1=O
AC50 [1]: 0.92 µM [falling, full curve]

CC(NC(=O)C1CCCN1S(=O)(=O)c1cccc2cccnc12)c1ccccc1 (centres undefined)
cell number change: -18.2%

Cc1ccc(S(=O)(=O)Oc2ccc(/C=C(/NC(=O)c3ccccc3)C(=O)O)cc2)cc1
cell number change: 3.82%
AC50 [2]: 0.651 µM [rising, single point]

Cc1onc(NC(=O)NC(=O)c2c(Cl)cccc2Cl)c1Br
AC50 [1]: 29.1 µM [rising, single point]

Cc1ccccc1NC1=NS(=O)(=O)c2ccccc21
AC50 [1]: 29.1 µM [falling, single point]

CCc1ccc(-c2cc(C(F)(F)F)n3nc(C(=O)Nc4cnn(Cc5ccccc5C)c4)cc3n2)s1
cell number change: -5.17%
AC50 [1]: 1.64 µM [rising, partial curve, poor fit]

O=C(Nc1ccc(NC(=O)c2ccccc2Cl)cc1)c1cccnc1
cell number change: 6.76%
AC50 [1]: 0.58 µM [rising, single point]

Cc1cc(C2C(=O)c3ccccc3C2=O)c(C)c(C)c1C
cell number change: -0.518%
AC50 [1]: 0.13 µM [falling, full curve, poor fit]

COc1cc2c(cc1O)[C@@H]1Cc3cc(O)c(OC)cc3[C@H](C2)N1C
cell number change: -27.5%
AC50 [1]: 29.1 µM [falling, single point]

Cc1ccc(CNC(=O)c2cc3c(=O)n4cccc(C)c4nc3n(CC3CCCO3)c2=N)cc1 (centres undefined)
cell number change: 8.72%

COc1ccc(/C=C/C(=O)NC(=S)NCCc2ccc(OC)c(OC)c2)cc1
cell number change: -49.1%
AC50 [2]: 13 µM [falling, single point]

O=C(CCS(=O)(=O)c1ccc(Cl)cc1)Nc1nnc(-c2cccs2)o1
cell number change: 53.9%
AC50 [2]: 29.1 µM [rising, single point]

COc1ccc(Br)cc1/C=N/NC(=O)CNC(=O)c1cccnc1
cell number change: 10.8%
AC50 [1]: 0.013 µM [rising, full curve, poor fit]

Cc1nn(C)cc1/C=N/NC(=O)CSc1ccccn1
cell number change: -21%
AC50 [2]: 2.06 µM [falling, partial curve, poor fit]
AC50 [1]: 1.46 µM [falling, partial curve]

CCOC(=O)c1sc(SC)c2c1CCC/C2=N/OC
cell number change: 49.9%
AC50 [2]: 0.92 µM [rising, full curve]
AC50 [1]: 0.651 µM [rising, full curve, poor fit]

CC(=O)Oc1ccc(N(C(C)=O)S(=O)(=O)c2cccs2)c2ccccc12
cell number change: 20.3%

CC1CCN(C(=O)COC(=O)c2cccc(NS(=O)(=O)c3ccccc3)c2)CC1
cell number change: -20.7%
AC50 [1]: 20.6 µM [falling, single point]

COc1ccc(C(=O)Nc2ccccc2[N+](=O)[O-])cc1S(=O)(=O)N1CCOCC1
cell number change: -18.5%
AC50 [1]: 1.84 µM [falling, partial curve]

CCCCN(CCCNC(=O)c1ccc(CS(=O)(=O)c2ccc(OC)cc2)o1)Cc1ccccc1
cell number change: -35.6%
AC50 [2]: 29.1 µM [falling, single point]

O=C(COC(=O)c1cc[n+]([O-])cc1)Nc1ccccc1Cl
cell number change: -4.31%
AC50 [2]: 5.17 µM [falling, single point]

COc1ccccc1N1CCN(C(c2ccccn2)c2nnnn2C2CCCCC2)CC1 (centres undefined)
AC50 [2]: 1.03 µM [rising, full curve]
AC50 [1]: 0.326 µM [rising, full curve]

COc1ccc(C(=O)/C=C2/C(=O)Nc3ccccc32)c(OC)c1
cell number change: -71.1%
AC50 [2]: 14.6 µM [falling, partial curve]
AC50 [1]: 16.4 µM [falling, single point]

O=C(O)c1cccc(C(=O)c2cccc(C(=O)O)c2)c1
cell number change: 27.3%

O=C(NCC(c1cccs1)N1CCOCC1)c1cc(=O)[nH]c2ccccc12 (centres undefined)
cell number change: 19.3%
AC50 [1]: 0.731 µM [falling, single point]

CC(NC(=O)c1ccc([N+](=O)[O-])cc1[N+](=O)[O-])c1ccc(-c2ccccc2)cc1 (centres undefined)
cell number change: 32.5%
AC50 [2]: 2.59 µM [rising, full curve]
AC50 [1]: 5.8 µM [rising, partial curve]

CCOc1ccc(C(c2c(NC(=O)c3ccccc3)sc(C)c2C)N2CCN(CCO)CC2)cc1 (centres undefined)
cell number change: -36%
AC50 [2]: 18.4 µM [falling, partial curve]
AC50 [1]: 23.1 µM [falling, partial curve]
